This list was built around the results that the source calls inconclusive (neither active nor inactive); the mix of calls is not that of the screen. Where the call is inconclusive, the potency comes from a doubtful curve fit. The source made the active and inactive calls. Calls follow the shape of the dose curve; as a rule, active = well fitted curve in the direction sought with a large enough effect; inconclusive = small, poorly fitted or top-dose-only effect, or another doubt; inactive = no such curve, though single readings can be large or run the other way.
Target: Metallo-beta-lactamase type 2 (Klebsiella pneumoniae) (UniProt C7C422)
Experiment: qHTS to identify inhibitors of the New Delhi Metallo-beta-lactamase (NDM): assay validation screen against the NCATS LOPAC Collection (AID 1794843);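 as to activity change, negative = inhibition: nitrocefin turnover by NDM-1 measured as 485 nm absorbance at plateau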
Settings: NDM-1 enzyme, nitrocefin hydrolysis, absorbance 485 nm; series mostly up to 38.4 µM; activity change, negative = inhibition: at the top concentration
Text: Assay Submitter (PI): James Inglese Ph.D., Patricia Dranchak Ph.D., Mahesh Aitha Ph.D.
Assay Development and Screening Technology Laboratory (ADST)
National Center for Advancing Translational Sciences (NCATS), Rockville, MD
National Institute of Health (NIH), Bethesda, Maryland
The metallo-beta-lactamases (MBL) are a main antibiotic resistance mechanism evolved by bacteria. There is an urgent clinical need for MBL inhibitors to mitigate this growing threat. To support a machine-based learning study, qHTS has been used to experimentally test inhibitors identified by prediction tools.
PROTOCOL TABLE (as described by Inglese et al., 2007)
SEQUENCE No. (e.g., 1, 2, 3, etc.); […] (e.g., enzyme, Incubation, Reagent, etc.); VALUE; DESCRIPTION
1; NDM-1; 4 uL of 3 nM enzyme in 50 mM HEPES (pH 7.0), 1 uM Zn2SO4, 0.01% Tween20; Use BioRaptr to dispense into Aurora black, clear bottom low base 1536-well plates
2; Compounds; 23 nL; Use Pin Tool (Wako) to transfer DMSO control and library compounds in DMSO
4; Reagent; 2 uL of 50 uM nitrocefin
6; Detector; Absorbance at 485 nm (bandwidth = 5 nm, 25 flashes/well) on Tecan Infinity
NOTES (numbers refer to sequence above)
1; Column 1 of each plate received assay buffer without enzyme and columns 2-48 received enzyme for a final assay concentration of 2 nM.
2; Control plate contained DMSO in columns 1, 2, 3, and 4.
3; Compound interaction with enzyme.
5; Substrate interaction with enzyme, plateau phase of kinetics.
6; Default reader settings were applied for absorbance read at 485 nm, bandwidth = 5 nm, 25 flashes/well.
Inglese J, Shamu CE, Guy RK. 2007. Reporting data from high-throughput screening of small-molecule libraries. Nat Chem Biol. doi:10.1038/nchembio0807-438
Yasgar A, Shinn P, Jadhav A, Auld D, Michael S, Zheng W, Austin CP, Inglese J, Simeonov A. 2008. Compound Management for Quantitative High-Throughput Screening. J Lab Autom 13:79 - 89. doi:10.1016/j.jala.2007.12.004
% is scaled to controls: 0 for no effect and ±100 for the full control effect; potency is read from the fitted curve at half-maximal effect.

By UniProt entry, the sequences of proteins in these tests, tags left out. Where a name states a change or a piece, a line headed by the entry shows the natural chain unless it says otherwise.
UniProt C7C422: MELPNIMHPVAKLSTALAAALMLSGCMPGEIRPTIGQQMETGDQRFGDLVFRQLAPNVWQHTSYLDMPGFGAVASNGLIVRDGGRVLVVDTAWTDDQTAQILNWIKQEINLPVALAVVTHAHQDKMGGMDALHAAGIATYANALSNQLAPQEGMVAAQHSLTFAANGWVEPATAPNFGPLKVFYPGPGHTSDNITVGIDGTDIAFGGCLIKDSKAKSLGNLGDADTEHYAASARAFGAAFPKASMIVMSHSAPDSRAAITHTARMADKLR

Structure (SMILES)	Potency	activity change, negative = inhibition
N=C(N)c1ccc(CS(=O)(=O)F)cc1	inconclusive: 22.4 µM [inhibitor, partial curve, poor fit]	–
CNCCc1c[nH]c2ccc(O)cc12	inconclusive: 3.98 µM [inhibitor, full curve]	–
[Cl-].[Cl][Pt].[NH2-].[NH2-].c1ccncc1	active: 3.98 µM	–
NC(Cc1cc(O)c(O)cc1O)C(=O)O (stereo unspecified)	active: 3.98 µM	–
NNC(N)=O	inconclusive: 14.1 µM [inhibitor, single point]	–
O=C(O)[C@@H]1CCN1	inconclusive: 5.62 µM [inhibitor, partial curve, poor fit]	–
CC1(C(=O)O)C2CCC(O2)C1(C)C(=O)O (stereo unspecified)	–	inactive: -0.247%
CN1CCc2cc(O)cc3c2[C@H]1Cc1ccc(O)c(O)c1-3	–	inactive: 3.33%
CNc1ccc2oc(C[C@H]3O[C@@]4(CC[C@H]3C)O[C@H]([C@H](C)C(=O)c3ccc[nH]3)[C@H](C)C[C@H]4C)nc2c1C(=O)O	inconclusive: 20 µM [inhibitor, single point]	–
C=C(C)[C@H]1CN[C@H](C(=O)O)[C@H]1CC(=O)O	inconclusive: 6.31 µM [inhibitor, full curve]	–
O=C(O)Cc1cnc[nH]1	inconclusive: 0.447 µM [inhibitor, full curve, poor fit]	–
Ic1ccccc1CNC1C2CCN(CC2)C1C(c1ccccc1)c1ccccc1 (stereo unspecified)	inconclusive: 0.355 µM [inhibitor, full curve, poor fit]	–
CP(=O)(O)C1=CCNCC1	–	inactive: -1.31%
NC(CP(=O)(O)O)C(=O)O (stereo unspecified)	inconclusive: 11.2 µM [inhibitor, partial curve, poor fit]	–
N#CCCN	inconclusive: 15.8 µM [inhibitor, partial curve]	–
Cc1sc2ccccc2c1CC1=NCCN1	inconclusive: 0.708 µM [inhibitor, full curve, poor fit]	–

Part of the list above, reformatted:
Structure (SMILES) | Potency | activity change, negative = inhibition
CP(=O)(O)C1=CCNCC1 | – | inactive: -1.31%
NC(CP(=O)(O)O)C(=O)O (stereo unspecified) | inconclusive: 11.2 µM [inhibitor, partial curve, poor fit] | –

— PubChem BioAssay (NCATS)
